Earlier results as cited in US20090099099A1, “Isoflavone Glycosides as Peroxisome Proliferator-Activated Receptor-alpha Modulator” (priority 2007, published 2009).
At least one structure is not confirmed: it was looked up by name or label, or the drawing left a doubt.

Conditions: rats or mice fed with a high fat diet; cited from earlier work

CC(C)OC(=O)C(C)(C)Oc1ccc(C(=O)c2ccc(Cl)cc2)cc1 [fenofibrate]
adiposity: reduced adiposity
